{"sequences": {"note": "Amino acid sequences for entries named in this document (tags omitted). A change or cut given only in a name is not applied to a line headed by its entry. Residues count along the entry.", "UniProt P25942": "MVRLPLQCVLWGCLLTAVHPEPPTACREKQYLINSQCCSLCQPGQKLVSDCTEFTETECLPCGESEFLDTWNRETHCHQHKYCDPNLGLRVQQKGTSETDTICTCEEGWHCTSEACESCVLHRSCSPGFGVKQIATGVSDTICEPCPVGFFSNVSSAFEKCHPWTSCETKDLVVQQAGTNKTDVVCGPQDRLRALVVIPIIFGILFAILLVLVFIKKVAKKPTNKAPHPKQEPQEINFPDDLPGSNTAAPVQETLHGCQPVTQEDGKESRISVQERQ", "UniProt P27548, residues 112-260": "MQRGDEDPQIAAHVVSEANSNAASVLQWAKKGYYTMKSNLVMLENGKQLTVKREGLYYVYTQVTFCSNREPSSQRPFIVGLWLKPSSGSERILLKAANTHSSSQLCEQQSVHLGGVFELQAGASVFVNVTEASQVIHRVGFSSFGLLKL"}, "source": "patent US20210139598A1", "key": {"[1]": {"target": "human CD40, immobilized (SPR of FIG. 2) (human) (UniProt P25942)", "assay": "SPR, immobilized human CD40, soluble CD40L titrated from 33 to 0.5 nM"}, "[2]": {"target": "human CD40, immobilized (SPR of FIG. 2) (human) (UniProt P25942)", "assay": "SPR, immobilized human CD40, soluble CD40L (FIG. 2)"}}, "note": "Results are given in words; binding and its absence hold for the method and conditions named. Some binding calls cover weakened binding; strength is not graded here.", "data": [{"substance": "mouse CD40L (from UniProt P27548 112-260) (ligand)", "values": [{"measurement": "binding", "setting": "[1]", "value": "binds"}, {"measurement": "binding", "setting": "[2]", "value": "binds"}]}]}
